Results as given in patent US20030186355A1, “Methods for selecting and producing t cell peptide epitopes and vaccines incorporating said selected epitopes” (priority 2000, published 2003).

System: 20S proteasomes
Assay: Proteasome digestion assay of 26-mer synthetic peptide substrates, fragments analysed by electrospray mass spectrometry
Type: biochemical, mouse
Conditions: for amount of peptide fragment, relative percentage of the total intensity of the peptide fragments in the spectrum: fragments of Sendai or MCF 26-mer substrate; for Intensity as a percentage of the total amount of intensity of the peak fragments: fragments of substrates 5A Moloney, 5B AKV, 5C Friend MuLV

Substance	amount of peptide fragment, relative percentage of the total intensity of the peptide fragments in the spectrum (digestion time 1 h)	amount of peptide fragment, relative percentage of the total intensity of the peptide fragments in the spectrum (digestion time 4 h)	further results
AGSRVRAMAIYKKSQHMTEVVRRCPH [26-mer substrate, P53, reference compound]	–	–	correct C-terminus: no
APGNYPAL [proteasome fragment of Sendai substrate]	5%	12%	–
ASWKPSSSWDYITVSNNLTSDQA [proteasome fragment of substrate 5B]	–	–	Intensity as a percentage of the total amount of intensity of the peak fragments (digestion time 1 h): 29%
ASWKPSSSWDYTTV [proteasome fragment of substrate 5B]	–	–	Intensity as a percentage of the total amount of intensity of the peak fragments (digestion time 4 h): 30%
AYWKPSSSWDFITV [proteasome fragment of substrate 5A]	–	–	Intensity as a percentage of the total amount of intensity of the peak fragments (digestion time 1 h): 14%
AYWKPSSSWDYITVD [proteasome fragment of substrate 5C]	–	–	Intensity as a percentage of the total amount of intensity of the peak fragments (digestion time 1 h): 8%; Intensity as a percentage of the total amount of intensity of the peak fragments (digestion time 4 h): 20%
AYWKPSSSWDYITVDNNLTTNQA [proteasome fragment of substrate 5C]	–	–	Intensity as a percentage of the total amount of intensity of the peak fragments (digestion time 1 h): 6%
DGPAGQAEPDRAHYNIVTFCCKCDST [26-mer substrate, HPV E7, reference compound]	–	–	correct C-terminus: yes
EFAPGNYPAL [proteasome fragment of Sendai substrate]	5%	7%	–
FAPGNYPAL [reference compound]	3%	15%	–
FESQQGWFEGL [proteasome fragment of MCF substrate]	6%	7%	amount of peptide fragment, relative percentage of the total intensity of the peptide fragments in the spectrum (digestion time 24 h): 28%
FESQQGWFEGLFNKS [proteasome fragment of MCF substrate]	26%	22%	amount of peptide fragment, relative percentage of the total intensity of the peptide fragments in the spectrum (digestion time 24 h): 15%
FESQQGWFEGLFNKSPWFTT [proteasome fragment of MCF substrate]	5%	–	–
FESQQGWFEGLFNKSPWFTTL [proteasome fragment of MCF substrate]	5%	6%	–
FNKSPWFTTL [proteasome fragment of MCF substrate, 10-mer]	–	6%	amount of peptide fragment, relative percentage of the total intensity of the peptide fragments in the spectrum (digestion time 24 h): 22%
FNKSPWFTTLI [proteasome fragment of MCF substrate, 11-mer]	5%	5%	amount of peptide fragment, relative percentage of the total intensity of the peptide fragments in the spectrum (digestion time 24 h): 35%
FNKSPWFTTLISTI [proteasome fragment of MCF substrate]	6%	6%	–
FNKSPWFTTLISTIM [proteasome fragment of MCF substrate]	–	6%	–
GEFAPGNYPAL [proteasome fragment of Sendai substrate, N-terminally elongated 11-mer]	27%	20%	amount of peptide fragment, relative percentage of the total intensity of the peptide fragments in the spectrum (digestion time 24 h): 38%

Substance	amount of peptide fragment, relative percentage of the total intensity of the peptide fragments in the spectrum (digestion time 1 h)	amount of peptide fragment, relative percentage of the total intensity of the peptide fragments in the spectrum (digestion time 4 h)	further results
GENGRKTRSAYERMCNILKGKFQTAA [26-mer substrate, Influenza NP, reference compound]	–	–	correct C-terminus: yes
GESRDLPSGQGINNLDNLRDYLDGSV [26-mer substrate, SV40 T, reference compound]	–	–	correct C-terminus: yes
ILKDPVHGEFAPG [proteasome fragment of Sendai substrate]	–	8%	–
ILKDPVHGEFAPGNYPAL [proteasome fragment of Sendai substrate]	46%	20%	amount of peptide fragment, relative percentage of the total intensity of the peptide fragments in the spectrum (digestion time 24 h): 38%
ILKDPVHGEFAPGNYPALWSYAMGVA [26-mer substrate, Sendai NP, reference compound]	–	–	correct C-terminus: yes
KDPVHGEFAPG [proteasome fragment of Sendai substrate]	–	9%	–
KFGIETMYPALGLHEFAGELSTLESL [26-mer substrate, Measles NP, reference compound]	–	–	correct C-terminus: yes
LISTIM	14%	14%	–
PGNYPAL [proteasome fragment of Sendai substrate]	7%	9%	amount of peptide fragment, relative percentage of the total intensity of the peptide fragments in the spectrum (digestion time 24 h): 14%
PSSSWDFITV	–	–	Intensity as a percentage of the total amount of intensity of the peak fragments (digestion time 1 h): 23%; Intensity as a percentage of the total amount of intensity of the peak fragments (digestion time 4 h): 36%; Intensity as a percentage of the total amount of intensity of the peak fragments (digestion time 24 h): 28%
PSSSWDYITV [proteasome fragment of substrate 5B]	–	–	Intensity as a percentage of the total amount of intensity of the peak fragments (digestion time 4 h): 17%; Intensity as a percentage of the total amount of intensity of the peak fragments (digestion time 24 h): 25%
PSSSWDYITVD [proteasome fragment of substrate 5C]	–	–	Intensity as a percentage of the total amount of intensity of the peak fragments (digestion time 4 h): 20%; Intensity as a percentage of the total amount of intensity of the peak fragments (digestion time 24 h): 31%
PSSSWDYITVDNNLTTNQA [proteasome fragment of substrate 5C]	–	–	Intensity as a percentage of the total amount of intensity of the peak fragments (digestion time 1 h): 5%
PVHGEFAPGNYPAL [proteasome fragment of Sendai substrate]	7%	–	amount of peptide fragment, relative percentage of the total intensity of the peptide fragments in the spectrum (digestion time 24 h): 10%
PWFTTL	13%	12%	–
PWFTTLI [proteasome fragment of MCF substrate]	13%	10%	–
PWFTTLISTI [proteasome fragment of MCF substrate]	7%	6%	–
REARVSSSPVNSLRNVVAIAAGIVVS [26-mer substrate, E. coli P9, reference compound]	–	–	correct C-terminus (correct C-terminal residue of the CTL-epitope generated from the 26-mer substrate): no
RQEYAIPVGPVFPPGMNWTELITNYS [26-mer substrate, Rotavirus VP-6, reference compound]	–	–	correct C-terminus: yes

Read-outs that look alike come from different tables or passages of the source.
